Measured values published in patent US12577231B2, “Androgen receptor PROTACS” (GlaxoSmithKline Intellectual Property Development Limited, priority 2023, dated 2026).
Substitutions are numbered along the chain they refer to. Some entries share one result that the patent states for a list of compounds. Values belong to the compound of their own block, whether it stands above or below them.

Key:
[1] = target: T1, Androgen Receptor, VCaP (AR wild type and amplified) (Homo sapiens, UniProt P10275); assay: Androgen Receptor Degradation-Imaging Assay, VCaP cell line; type: cell-based; conditions: 16 hours treatment, immunofluorescence
T1 construct: endogenous in cells; host or cells: VCaP
T1 sequence (P10275 1-920): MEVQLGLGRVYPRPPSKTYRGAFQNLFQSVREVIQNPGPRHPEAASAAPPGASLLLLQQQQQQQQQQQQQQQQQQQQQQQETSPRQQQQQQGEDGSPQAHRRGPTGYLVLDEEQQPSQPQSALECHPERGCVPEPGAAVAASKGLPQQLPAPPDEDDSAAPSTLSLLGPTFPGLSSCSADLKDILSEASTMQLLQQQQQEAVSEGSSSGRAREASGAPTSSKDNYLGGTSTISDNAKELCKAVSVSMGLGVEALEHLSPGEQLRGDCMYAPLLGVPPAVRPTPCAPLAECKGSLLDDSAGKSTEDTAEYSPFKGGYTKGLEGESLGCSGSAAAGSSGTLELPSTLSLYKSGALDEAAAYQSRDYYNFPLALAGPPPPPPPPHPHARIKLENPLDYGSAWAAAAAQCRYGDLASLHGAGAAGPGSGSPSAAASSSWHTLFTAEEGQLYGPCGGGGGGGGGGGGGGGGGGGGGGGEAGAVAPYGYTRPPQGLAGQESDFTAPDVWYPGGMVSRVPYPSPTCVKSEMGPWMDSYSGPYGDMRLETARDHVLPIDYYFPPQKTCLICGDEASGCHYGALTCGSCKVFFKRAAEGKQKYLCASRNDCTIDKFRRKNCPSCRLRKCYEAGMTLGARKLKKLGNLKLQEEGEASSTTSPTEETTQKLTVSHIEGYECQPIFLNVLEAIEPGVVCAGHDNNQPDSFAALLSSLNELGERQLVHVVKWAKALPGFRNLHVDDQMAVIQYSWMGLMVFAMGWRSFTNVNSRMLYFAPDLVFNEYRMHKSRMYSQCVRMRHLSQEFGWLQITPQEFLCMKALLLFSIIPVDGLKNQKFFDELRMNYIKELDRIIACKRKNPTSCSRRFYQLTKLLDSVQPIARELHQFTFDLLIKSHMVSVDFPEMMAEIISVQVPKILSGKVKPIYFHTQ

[2] = target: T2, Androgen Receptor, MDA-PCa-2b (AR T878A/L702H) (Homo sapiens, UniProt P10275, L702H/T878A); assay: Androgen Receptor Degradation-Imaging Assay, MDA-PCa-2b cell line; type: cell-based; conditions: 16 hours treatment, immunofluorescence
T2 construct: host or cells: MDA-PCa-2b
T2 sequence (P10275 1-920 L702H/T878A): T1 sequence (P10275 1-920) with L702H, T878A

Compound: CC1(C)[C@H](NC(=O)c2ccc(N3CCC(CN4CCC(n5ncc6c(N7CCC(=O)NC7=O)cccc65)CC4)CC3)c(F)c2)C(C)(C)[C@H]1Oc1ccc(C#N)c2c1CCCO2 [Example 8, N-((1r,3r)-3-((8-Cyanochroman-5-yl)oxy)-2,2,4,4-tetramethylcyclobutyl)-4-(4-((4-(4-(2,4-dioxotetrahydropyrimidin-1(2H)-yl)-1H-indazol-1-yl)piperidin-1-yl)methyl)piperidin-1-yl)-3-fluorobenzamide]
pDC50 [1]: ≥ 8.0
pDC50 [2]: ≥ 7.0

Compound: COc1cc(O[C@H]2C(C)(C)[C@H](NC(=O)c3ccc(N4CCC(CN5CCC(n6ccc7c(N8CCC(=O)NC8=O)cccc76)CC5)CC4)cc3)C2(C)C)ccc1C#N [Example 16, N-((1r,3r)-3-(4-Cyano-3-methoxyphenoxy)-2,2,4,4-tetramethylcyclobutyl)-4-(4-((4-(4-(2,4-dioxotetrahydropyrimidin-1(2H)-yl)-1H-indol-1-yl)piperidin-1-yl)methyl)piperidin-1-yl)benzamide]
pDC50 [1]: ≥ 8.0
pDC50 [2]: ≥ 7.0

Compound: CC1(C)[C@H](NC(=O)c2ccc(N3CCC(CN4CCC(n5ccc6c(N7CCC(=O)NC7=O)cc(F)cc65)CC4)CC3)c(F)c2)C(C)(C)[C@H]1Oc1ccc(C#N)c2ncccc12 [Example 32, N-((1r,3r)-3-((8-Cyanoquinolin-5-yl)oxy)-2,2,4,4-tetramethylcyclobutyl)-4-(4-((4-(4-(2,4-dioxotetrahydropyrimidin-1(2H)-yl)-6-fluoro-1H-indol-1-yl)piperidin-1-yl)methyl)piperidin-1-yl)-3-fluorobenzamide]
pDC50 [1]: ≥ 8.0
pDC50 [2]: ≥ 7.0

Compound: CC1(C)[C@H](NC(=O)c2ccc(N3CCC4(CC3)CC(N3CCC(n5ncc6c(N7CCC(=O)NC7=O)cccc65)CC3)C4)c(F)c2)C(C)(C)[C@H]1Oc1ccc(C#N)c2ncccc12 [Example 49, N-((1r,3r)-3-((8-Cyanoquinolin-5-yl)oxy)-2,2,4,4-tetramethylcyclobutyl)-4-(2-(4-(4-(2,4-dioxotetrahydropyrimidin-1(2H)-yl)-1H-indazol-1-yl)piperidin-1-yl)-7-azaspiro[3.5]nonan-7-yl)-3-fluorobenzamide]
pDC50 [1]: ≥ 8.0
pDC50 [2]: ≥ 7.0

Compound: CC1(C)[C@H](NC(=O)c2ccc(N3CCC(CN4CCC(n5ccc6c(N7CCC(=O)NC7=O)c(F)ccc65)CC4)CC3)c(F)c2)C(C)(C)[C@H]1Oc1ccc(C#N)c2ncccc12 [Example 51, N-((1r,3r)-3-((8-Cyanoquinolin-5-yl)oxy)-2,2,4,4-tetramethylcyclobutyl)-4-(4-((4-(4-(2,4-dioxotetrahydropyrimidin-1(2H)-yl)-5-fluoro-1H-indol-1-yl)piperidin-1-yl)methyl)piperidin-1-yl)-3-fluorobenzamide]
pDC50 [1]: ≥ 8.0
pDC50 [2]: ≥ 7.0

Continued, values first:

pDC50 [1]: ≥ 8.0
pDC50 [2]: ≥ 7.0
Compound: COc1cc(O[C@H]2C(C)(C)[C@H](NC(=O)c3ccc(N4CCC(CN5CCC(n6ncc7c(N8CCC(=O)NC8=O)cccc76)CC5)CC4)cc3)C2(C)C)ccc1C#N [Example 15, N-((1r,3r)-3-(4-Cyano-3-methoxyphenoxy)-2,2,4,4-tetramethylcyclobutyl)-4-(4-((4-(4-(2,4-dioxotetrahydropyrimidin-1(2H)-yl)-1H-indazol-1-yl)piperidin-1-yl)methyl)piperidin-1-yl)benzamide]

pDC50 [1]: ≥ 8.0
pDC50 [2]: ≥ 7.0
Compound: CC1(C)[C@H](NC(=O)c2ccc(N3CCC(CN4CCC(n5ccc6c(N7CCC(=O)NC7=O)cccc65)CC4)CC3)c(F)c2)C(C)(C)[C@H]1Oc1ccc(C#N)c2ncccc12 [Example 31, N-((1r,3r)-3-((8-Cyanoquinolin-5-yl)oxy)-2,2,4,4-tetramethylcyclobutyl)-4-(4-((4-(4-(2,4-dioxotetrahydropyrimidin-1(2H)-yl)-1H-indol-1-yl)piperidin-1-yl)methyl)piperidin-1-yl)-3-fluorobenzamide]

pDC50 [1]: ≥ 8.0
pDC50 [2]: ≥ 7.0
Compound: CC1(C)[C@H](NC(=O)c2ccc(N3CCC(CN4CCC(n5ncc6c(N7CCC(=O)NC7=O)ccnc65)CC4)CC3)c(F)c2)C(C)(C)[C@H]1Oc1ccc(C#N)c2ncccc12 [Example 40, N-((1r,3r)-3-((8-Cyanoquinolin-5-yl)oxy)-2,2,4,4-tetramethylcyclobutyl)-4-(4-((4-(4-(2,4-dioxotetrahydropyrimidin-1(2H)-yl)-1H-pyrazolo[3,4-b]pyridin-1-yl)piperidin-1-yl)methyl)piperidin-1-yl)-3-fluorobenzamide]
